Source: PubChem BioAssay AID743121 (NCATS, 2013)
Screen: 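Genes whose silencing strengthens cell killing by camptothecin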 (primary screen). Cell system: MDA-MB-231 cells, a human breast cancer line. Reagents: single siRNA against human genes, 20 nM siRNA (0.8 pmol per well). Duration: 120 h (drug added 48 h after transfection, read 72 h later). Challenge: camptothecin 20 nM (about EC30) for 72 h; vehicle 0.1% DMSO in parallel plates. Measured: 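CellTiter-Glo ATP signal, scaled to control siRNA as percent viability; sensitisation given as log2 of untreated divided by camptothecin-treated viability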. Reading the numbers: log2 vehicle/camptothecin viability: higher = stronger sensitisation to camptothecin; viability with camptothecin and viability without drug: higher = more viable cells. Hit rule: 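Active genes have an RSA gene-level p-value below 0.001, computed from the ratios of their separate siRNAs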.
This is a random part of about 26,000 reagents tested. Over the whole deposit, 167 (0.63%) got an active call. 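Calls are per gene from RSA p-values that are not deposited; an individual active-marked siRNA can sensitise only weakly.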 Reagents against one gene are numbered here.

| Target gene | siRNA no. | log2 vehicle/camptothecin viability | viability with camptothecin (% of control) | viability without drug (% of control) | outcome |
| --- | --- | --- | --- | --- | --- |
| CD274 | 1 | 0.223 | 96.8 | 113 | inactive |
| CD274 | 2 | 0.107 | 90.4 | 97.4 | inactive |
| CD274 | 3 | -0.0127 | 121 | 120 | inactive |
| CCR4 | 1 | -0.263 | 99.3 | 82.8 | inactive |
| CCR4 | 2 | -0.135 | 116 | 105 | inactive |
| CCR4 | 3 | 0.043 | 84.3 | 86.9 | inactive |
| CCR4 | 4 | 0.214 | 58.1 | 67.5 | inactive |
| RAB26 | 1 | -0.16 | 89.3 | 79.9 | inactive |
| RAB26 | 2 | 0.67 | 2.93 | 4.66 | inactive |
| RAB26 | 3 | -0.128 | 28.9 | 26.5 | inactive |
| RAB26 | 4 | -0.139 | 96.8 | 87.9 | inactive |
| NKTR | 1 | 0.336 | 32.1 | 40.6 | inactive |
| NKTR | 2 | -0.0355 | 67 | 65.4 | inactive |
| NKTR | 3 | -0.228 | 89.3 | 76.2 | inactive |
| TRIM59 | 1 | -0.217 | 69.4 | 59.7 | inactive |
| TRIM59 | 2 | -0.0933 | 104 | 97.2 | inactive |
| TRIM59 | 3 | -0.155 | 99.8 | 89.7 | inactive |
| TRIM59 | 4 | 0.0442 | 86.6 | 89.3 | inactive |
| PTPN3 | 1 | -0.389 | 84.6 | 64.6 | inactive |
| PTPN3 | 2 | -0.538 | 114 | 78.4 | inactive |
| PTPN3 | 3 | -0.124 | 79.7 | 73.1 | inactive |
| PTPN3 | 4 | -0.416 | 86.4 | 64.8 | inactive |
| AK3 | 1 | -0.525 | 84.8 | 59 | inactive |
| AK3 | 2 | 0.392 | 12.8 | 16.8 | inactive |
| AK3 | 3 | 0.798 | 49 | 85.2 | inactive |
| AK3 | 4 | -0.0482 | 89.1 | 86.1 | inactive |
| ACVR1 | 1 | 0.232 | 62.5 | 73.4 | inactive |
| ACVR1 | 2 | -0.147 | 111 | 100 | inactive |
| ACVR1 | 3 | -0.182 | 88.7 | 78.2 | inactive |
| ACVR1 | 4 | -0.371 | 130 | 100 | inactive |
| UNG | 1 | -0.393 | 154 | 117 | inactive |
| UNG | 2 | 0.0443 | 75.1 | 77.4 | inactive |
| UNG | 3 | -0.277 | 104 | 85.6 | inactive |
| SAP18 | 1 | -0.421 | 34.3 | 25.6 | inactive |
| SAP18 | 2 | -0.146 | 95.6 | 86.3 | inactive |
| SAP18 | 3 | 0.18 | 22.6 | 25.6 | inactive |
| SAA1 | 1 | -0.514 | 65.5 | 45.8 | inactive |
| SAA1 | 2 | 0.0908 | 65.8 | 70 | inactive |

Limited to “log2 vehicle/camptothecin viability”, for 10 of the entries above:
AK3 #2 = 0.392
AK3 #3 = 0.798
AK3 #4 = -0.0482
ACVR1 #1 = 0.232
ACVR1 #2 = -0.147
ACVR1 #3 = -0.182
ACVR1 #4 = -0.371
UNG #1 = -0.393
UNG #2 = 0.0443
UNG #3 = -0.277

More results follow.
| Target gene | siRNA no. | log2 vehicle/camptothecin viability | viability with camptothecin (% of control) | viability without drug (% of control) | outcome |
| --- | --- | --- | --- | --- | --- |
| HEMK1 | 1 | 0.0971 | 70.2 | 75.1 | active |
| HEMK1 | 2 | 0.47 | 5.43 | 7.52 | active |
| HEMK1 | 3 | 0.407 | 15.7 | 20.9 | active |
| HEMK1 | 4 | 0.618 | 58.2 | 89.4 | active |
| CD1D | 1 | -0.176 | 41.7 | 36.9 | inactive |
| CD1D | 2 | -0.0614 | 77.7 | 74.5 | inactive |
| CD1D | 3 | 0.0041 | 83.1 | 83.3 | inactive |
| CD1D | 4 | 0.301 | 29.7 | 36.6 | inactive |
| IL15RA | 1 | 0.117 | 100 | 109 | inactive |
| IL15RA | 2 | -0.0749 | 86.5 | 82.1 | inactive |
| IL15RA | 3 | -0.212 | 105 | 90.7 | inactive |
| NTRK2 | 1 | 0.152 | 96.1 | 107 | inactive |
| NTRK2 | 2 | -0.0228 | 93.8 | 92.3 | inactive |
| NTRK2 | 3 | 0.0265 | 98.1 | 100 | inactive |
| NTRK2 | 4 | -0.195 | 82.3 | 71.9 | inactive |
| CDK9 | 1 | -0.276 | 94.1 | 77.7 | inactive |
| CDK9 | 2 | -0.54 | 59 | 40.6 | inactive |
| CDK9 | 3 | 0.137 | 34.6 | 38 | inactive |
| CDK9 | 4 | -0.249 | 131 | 110 | inactive |
| XRCC1 | 1 | -0.159 | 67.4 | 60.4 | inactive |
| XRCC1 | 2 | -0.499 | 85.9 | 60.8 | inactive |
| XRCC1 | 3 | 0.221 | 37.4 | 43.6 | inactive |
| XRCC1 | 4 | 0.228 | 22.5 | 26.3 | inactive |
| CISH | 1 | 0.409 | 62.5 | 83 | inactive |
| CISH | 2 | -0.0765 | 48.1 | 45.6 | inactive |
| CISH | 3 | -0.409 | 67.8 | 51.1 | inactive |
| APOA1 | 1 | -0.158 | 108 | 97 | inactive |
| APOA1 | 2 | -0.0886 | 90.6 | 85.2 | inactive |
| APOA1 | 3 | 0.462 | 17.8 | 24.5 | inactive |
| APOA1 | 4 | 0.0698 | 50.7 | 53.2 | inactive |
